These results are taken from article PMC5539197, “CD14 is critical for TLR2-mediated M1 macrophage activation triggered by N-glycan recognition” (Scientific Reports, 2017).

The target in assay [1] is ArtinM (Artocarpus heterophyllus (jackfruit)). Kind of assay: co-IP; lectin immunoprecipitation: 100 µg lysate protein incubated with 10 µg ArtinM for 16 h at 4 °C, then 10 µg purified anti-ArtinM immunoglobulin Y added; centrifuged, washed with ice-cold acetone; western blot with anti-CD14 or anti-TLR2; only the target purified.
Assay [2] shares this target. Kind of assay: condition: only ArtinM pre-incubated with Manα1-3(Manα1-6)Man (1 mM); co-IP; as the lectin immunoprecipitation, but with ArtinM pre-incubated with Manα1-3(Manα1-6)Man (1 mM); only the target purified.

These are yes or no findings as the source states them, for the method shown. Binding seen in cells or lysates may run through a third protein. For some assays here: Binding can be weak; no strength is given.

B1: CD14 (receptor, UniProt P08571 20-345)
chain: TTPEPCELDDEDFRCVCNFSEPQPDWSEAFQCVSAVEVEIHAGGLNLEPFLKRVDADADPRQYADTVKALRVRRLTVGAAQVPAQLLVGALRVLAYSRLKELTLEDLKITGTMPPLPLEATGLALSSLRLRNVSWATGRSWLAELQQWLKPGLKVLSIAQAHSPAFSCEQVRAFPALTSLDLSDNPGLGERGLMAALCPHKFPAIQNLALRNTGMETPTGVCAALAAAGVQPHSLDLSHNSLRATVNPSAPRCMWSSALNSLNLSFAGLEQVPKGLPAKLRVLDLSCNRLNRAPQPDELPEVDNLTLDGNPFLVPGTALPHEGSMN
For B1, the figures for the binding result in assay [1] and in assay [2] were “binds” and “no binding”, respectively.
